{"sequences": {"note": "By UniProt entry, the sequences of proteins in these tests, tags left out. Where a name states a change or a piece, a line headed by the entry shows the natural chain unless it says otherwise.", "UniProt P51450": "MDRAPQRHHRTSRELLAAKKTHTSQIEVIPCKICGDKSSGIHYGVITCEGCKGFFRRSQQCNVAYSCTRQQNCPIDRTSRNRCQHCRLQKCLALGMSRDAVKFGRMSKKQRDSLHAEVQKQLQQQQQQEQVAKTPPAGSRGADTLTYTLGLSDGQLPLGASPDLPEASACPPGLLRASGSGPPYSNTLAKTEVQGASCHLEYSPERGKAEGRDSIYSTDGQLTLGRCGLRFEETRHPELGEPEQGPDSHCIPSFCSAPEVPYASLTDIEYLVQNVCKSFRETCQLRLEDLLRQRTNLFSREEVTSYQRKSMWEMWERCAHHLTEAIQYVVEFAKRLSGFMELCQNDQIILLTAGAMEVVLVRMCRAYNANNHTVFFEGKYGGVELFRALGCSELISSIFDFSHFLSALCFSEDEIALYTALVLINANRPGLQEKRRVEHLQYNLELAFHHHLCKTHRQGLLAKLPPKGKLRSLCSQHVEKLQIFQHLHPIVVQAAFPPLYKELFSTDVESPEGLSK"}, "source": "PubChem BioAssay AID2551", "about": "(National Center for Advancing Translational Sciences (NCATS), 2010)", "note": "The campaign covered roughly 310,000 compounds. About 17,000 (5.5%) were called active. Inconclusive results, whose numbers are uncertain, are shown with a selection of clear calls. Calls follow the shape of the dose curve; as a rule, active = well fitted inhibition curve with a large enough effect; inconclusive = small, poorly fitted or top-dose-only effect, or effect the other way; inactive = no such curve, though single readings can be large or run the other way. Potencies of inconclusive entries are doubtful fits and often do not repeat. % is scaled to controls: 0 for no effect and ±100 for the full control effect; potency is read from the fitted curve at half-maximal effect.", "data": [{"target": "Nuclear receptor ROR-gamma (Mus musculus) (UniProt P51450)", "assay": "qHTS for inhibitors of ROR gamma transcriptional activity; also: nearly all actives have a fitted effect of over 60% in size", "conditions": "Drosophila S2 Gal4-RORgamma UAS-luciferase reporter, 20 h; activity change, negative = inhibition: at 53.6 µM (top of the series)", "outline": "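Drosophila S2 cells stably expressing Gal4-DBD/mouse RORγ fusion under metallothionein promoter plus UAS-luciferase; compound 1 h, then 700 uM CuSO4 induction for 20 h at ambient temperature; inhibition read as reduced luminescence.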", "values": [{"smiles": "CCn1ncc(/C=C/C(=O)Nc2c(C)nn(Cc3ccc(Cl)cc3Cl)c2C)c1C", "Potency": "inconclusive: 11.2 µM [activator, partial curve]"}, {"smiles": "Cc1ccc(C(C)C)c(OCc2ccc(C(=O)N/N=C/c3cccc(O)c3O)cc2)c1", "Potency": "active: 1 µM"}, {"smiles": "Cc1noc(C)c1C(=O)N1CCC2(CCN(Cc3cc(C(F)(F)F)cc(C(F)(F)F)c3)CC2)CC1", "Potency": "inactive"}, {"smiles": "CC(C)N(CC#CCC1(O)c2ccccc2-c2ccccc21)CCO", "Potency": "inactive"}, {"smiles": "COCCCNC(=S)NNC(=O)c1cc(-c2ccncc2)nc2ccccc12", "Potency": "inconclusive: 12.6 µM [inhibitor, partial curve, poor fit]"}, {"smiles": "O=c1c2ccccc2n2c(=S)[nH]nc2n1-c1ccccc1", "Potency": "inconclusive: 17.8 µM [inhibitor, single point]"}, {"smiles": "CC(=O)N/C(=C/c1ccc(OS(=O)(=O)c2ccc(C)cc2)cc1)C(=O)NCCCO", "Potency": "inactive"}, {"smiles": "COc1cccc(C2C3=C(CC(C)(C)CC3=O)Nc3cc(OC)c(OC)cc32)c1", "note": "(stereo unspecified)", "Potency": "inactive"}, {"smiles": "Oc1ccc(/C=N/N(c2ccccc2)c2ccccc2)cc1O", "Potency": "inconclusive: 11.2 µM [activator, partial curve]"}, {"smiles": "OC1(c2ccc(Cl)cc2)CCN(Cc2c[nH]c3ccccc23)CC1", "Potency": "inactive"}, {"smiles": "CC1=NN(C(N)=S)C(=O)C1N=Nc1cccc([N+](=O)[O-])c1", "note": "(stereo unspecified)", "Potency": "active: 0.501 µM"}, {"smiles": "Cc1cccc(N2CCN(C(=O)Cn3sc4nc(C)cc(C)c4c3=O)CC2C)c1", "note": "(stereo unspecified)", "Potency": "active: 7.08 µM"}, {"smiles": "COC(=O)C(C(=O)OC)C(C[N+](=O)[O-])c1ccc(OC)c(OC)c1", "note": "(stereo unspecified)", "Potency": "inactive"}, {"smiles": "C/C(=N\\Nc1ccc(S(=O)(=O)N2CCOCC2)cc1[N+](=O)[O-])C(C)C", "Potency": "inconclusive: 35.5 µM [activator, single point]"}, {"smiles": "O=C(CCS(=O)(=O)c1ccc(Cl)cc1)NCCc1c[nH]c2ccccc12", "Potency": "inactive"}, {"smiles": "COCCn1c(CN(Cc2ccccc2)Cc2ccccc2)nc2c1c(=O)n(C)c(=O)n2C", "Potency": "inconclusive: 10 µM [inhibitor, partial curve]"}, {"smiles": "Cc1ccc(C)c(S(=O)(=O)c2c(N)n(/N=C/c3ccco3)c3nc4ccccc4nc23)c1", "Potency": "inconclusive: 22.4 µM [inhibitor, single point]"}, {"smiles": "CCn1c(=S)[nH]c2ccccc21", "Potency": "inconclusive: 15.8 µM [inhibitor, single point]"}, {"smiles": "Cc1ccc(-c2csc3ncn(CC(N)=O)c(=O)c23)cc1C", "Potency": "inconclusive: 7.08 µM [activator, partial curve]"}, {"smiles": "CCCCc1nnc(SCc2ccc(OCC)cc2)n1N", "Potency": "inconclusive: 35.5 µM [activator, single point]"}, {"smiles": "COc1ccc2nc(N(Cc3ccccc3)C(=O)CCNC(C)=O)sc2c1", "Potency": "inconclusive: 8.91 µM [inhibitor, partial curve]"}, {"smiles": "COc1ccc(C(=O)N/N=C(\\C)Cn2cnc([N+](=O)[O-])n2)cc1", "Potency": "inconclusive: 25.1 µM [inhibitor, single point]"}, {"smiles": "CC(C)(C)n1nc2c(c1NC(=O)c1ccc(F)c(F)c1)CS(=O)(=O)C2", "Potency": "inactive"}, {"smiles": "Cc1c(C(=O)N2CCC(C)CC2)sc2ncnc(N(C)c3ccccc3)c12", "Potency": "inconclusive: 5.62 µM [activator, partial curve]"}, {"smiles": "CCNc1ccc(S(=O)(=O)N(C)C)cc1NCC(=O)Nc1ccc(Br)cc1F", "Potency": "inconclusive: 11.2 µM [activator, partial curve]"}, {"smiles": "COc1ccc(/C=N\\NC(=O)c2ccccc2Cl)cc1COc1c(F)c(F)c(F)c(F)c1F", "Potency": "inactive"}, {"smiles": "CC(C)=CCSc1nnc([C@@H](NC(=O)OC(C)(C)C)C(C)C)o1", "Potency": "inactive"}, {"smiles": "COc1ccc(CNC(=S)N/N=C/c2ccc(OC)c(OC)c2)cc1", "Potency": "active: 11.2 µM"}, {"smiles": "COc1ccc(CCN2C(=O)CSC2=Nc2ccc(C(C)C)cc2)cc1OC", "Potency": "inconclusive: 35.5 µM [inhibitor, single point]"}, {"smiles": "O=C(COc1ccc(Cl)cc1Cl)NCc1ccco1", "Potency": "inconclusive: 14.1 µM [activator, single point]"}, {"smiles": "O=[N+]([O-])c1cccc(C2CC(c3ccccc3)=NN2c2ccccc2)c1", "note": "(stereo unspecified)", "Potency": "inconclusive: 14.1 µM [activator, partial curve, poor fit]"}, {"smiles": "Cc1ccc(S(=O)(=O)N2CCCC2C(=O)NCCc2ccccc2)cc1", "note": "(stereo unspecified)", "Potency": "inactive"}, {"smiles": "COC(=O)CSc1[nH]c2ccc(Br)cc2c1[N+](=O)[O-]", "Potency": "inactive"}, {"smiles": "CSC[C@H](NC(=O)COc1cc2c(c3oc(=O)c(C)c(C)c13)CCC(C)(C)O2)C(=O)O", "Potency": "inactive"}, {"smiles": "CCOc1ccc(C(=O)Nc2c(C(N)=O)oc3ccccc23)cc1", "Potency": "inconclusive: 6.31 µM [activator, single point]"}, {"smiles": "Cc1cc2c(cc1C)CSC(c1c(O)ccc3ccccc13)SC2", "Potency": "inconclusive: 35.5 µM [inhibitor, single point]"}, {"smiles": "CCOC(=O)N1CCN(C(=O)CSCc2ccc(C)cc2)CC1", "Potency": "inconclusive: 11.2 µM [activator, partial curve]"}, {"smiles": "COc1ccccc1-c1coc2cc(O)ccc2c1=O", "Potency": "inconclusive: 11.2 µM [activator, partial curve]"}, {"smiles": "O=C1Nc2ccccc2N(O)N1c1ccc(S(=O)(=O)N2CCOCC2)cc1", "Potency": "inactive"}, {"smiles": "COc1ccccc1NC(=O)C1=C(C)NC(=O)NC1c1cc(C)cs1", "note": "(stereo unspecified)", "Potency": "inactive"}, {"smiles": "Fc1ccc(CNC(=S)Nc2ccc(Cl)cc2Cl)cc1", "Potency": "active: 3.98 µM"}, {"smiles": "CCN(CC)S(=O)(=O)c1ccc(C(=O)Nc2nnc(CSC)o2)cc1", "Potency": "active: 1.12 µM"}, {"smiles": "CC1CC(C)(C)CC2(C1)NC(=S)N(c1ccccc1)N2", "note": "(stereo unspecified)", "Potency": "active: 7.08 µM"}, {"smiles": "CCOc1cc(C=O)ccc1OCCSc1ccc(C)cc1", "Potency": "inconclusive: 3.16 µM [inhibitor, single point]"}, {"smiles": "Cc1oc(-c2ccccc2F)nc1CS(=O)(=O)CC(=O)NCCCN1CCN(C)CC1", "Potency": "inconclusive: 11.2 µM [inhibitor, partial curve]"}, {"smiles": "COC(=O)NC(c1ccco1)[C@]1(C(C)=O)CCCC1=O", "note": "(stereo partly specified)", "activity change, negative = inhibition": "inactive: 17.7% [at 10 µM]"}, {"smiles": "COc1ccc(Oc2coc3c(CN4CCOCC4)c(O)ccc3c2=O)cc1", "Potency": "inconclusive: 35.5 µM [inhibitor, single point]"}, {"smiles": "O=C(NNC(=S)NC(=O)c1ccccc1)c1cccnc1", "Potency": "inconclusive: 3.98 µM [inhibitor, single point]"}, {"smiles": "CC1CN(C(=O)CSc2nnc(CNC(=O)c3ccc(S(=O)(=O)N(C)C)cc3)o2)CC(C)O1", "note": "(stereo unspecified)", "Potency": "inactive"}, {"smiles": "COC(=O)C(=O)C/C(=N/Nc1ncnc2ccccc12)c1ccc(Cl)cc1", "Potency": "active: 11.2 µM"}, {"smiles": "CCOC(=S)SCc1cn2cccc(C)c2n1", "Potency": "active: 14.1 µM"}, {"smiles": "Cc1nc(C)c(CCNC(=O)c2ccc(C(F)(F)F)cc2)s1", "Potency": "inconclusive: 14.1 µM [activator, partial curve]"}, {"smiles": "CC1CCN(C(=S)NC(=O)c2cccc([N+](=O)[O-])c2)CC1", "Potency": "active: 0.708 µM"}, {"smiles": "O=c1oc2c3c4c(cc2c2c1CCC2)OCCN4CCC3", "Potency": "inactive"}, {"smiles": "Cn1c(=Nc2ccc(N3CCOCC3)cc2)ccc2ccccc21", "Potency": "inactive"}, {"smiles": "CC(C)CNC(=O)c1c(F)c(F)c(F)c(F)c1F", "Potency": "inactive"}, {"smiles": "c1ccc(CN=C2NN=C(c3ccccc3)CS2)cc1", "Potency": "inconclusive: 15.8 µM [inhibitor, single point]"}, {"smiles": "Cc1ccc(/C=N/n2c(COc3ccccc3)n[nH]c2=S)cc1", "Potency": "active: 3.16 µM"}, {"smiles": "CCOc1ccccc1C1NC(=O)NC(C)=C1C(=O)OC1CCCCC1", "note": "(stereo unspecified)", "Potency": "inactive"}, {"smiles": "COC(=O)c1ccccc1S(=O)(=O)N1CCC(c2nc3ccccc3o2)CC1", "Potency": "inconclusive: 35.5 µM [activator, single point]"}, {"smiles": "CCOC(=O)c1sc2nc(C)nc(NCc3ccccc3OC)c2c1C", "Potency": "inactive"}, {"smiles": "CC(C)c1ccc(S(=O)(=O)N2CCN(C(=O)c3ccco3)CC2)cc1", "Potency": "inconclusive: 20 µM [activator, partial curve]"}, {"smiles": "COc1ccc(S(=O)(=O)Nc2cc(C(=O)NC3CCCCCC3)ccc2N2CCOCC2)cc1", "Potency": "inconclusive: 11.2 µM [activator, single point]"}, {"smiles": "C[C@@H]1CN(CCCn2c3ccccc3c3ccccc32)C[C@H](C)N1", "Potency": "inconclusive: 31.6 µM [inhibitor, single point]"}, {"smiles": "CC(C)=CCOc1ccc(/C=C/C(=O)c2ccc(OCC=C(C)C)cc2OCC(=O)O)cc1", "Potency": "inconclusive: 14.1 µM [inhibitor, single point]"}, {"smiles": "COc1cc(OC)cc(C(=O)N[C@H](C(=O)Nc2nc3ccccc3[nH]2)C(C)C)c1", "Potency": "inconclusive: 35.5 µM [inhibitor, single point]"}, {"smiles": "C=CCN1C(=O)C(CCCC)NC1=S", "note": "(stereo unspecified)", "Potency": "inconclusive: 20 µM [inhibitor, single point]"}, {"smiles": "CCOc1cc(C(=O)N=c2sccn2C)cc(Br)c1OC", "Potency": "inactive"}, {"smiles": "CCOCCCNC(=O)c1cc(Sc2ccc(F)cc2)nc2ccccc12", "Potency": "inconclusive: 8.91 µM [activator, partial curve]"}, {"smiles": "CS(=O)(=O)c1nc(-c2ccco2)cc(C(F)(F)F)n1", "Potency": "active: 2.51 µM"}, {"smiles": "CC(=O)N1N=C(c2ccccc2O)OC1(C)CC(=O)Nc1ccccc1", "note": "(stereo unspecified)", "activity change, negative = inhibition": "inactive: 30.5% [at 10 µM]"}, {"smiles": "O=C(CN1C(=O)c2ccccc2S1(=O)=O)c1ccccc1Cl", "Potency": "active: 8.91 µM"}, {"smiles": "C/C(CC(=O)Nc1cccc(C(F)(F)F)c1)=N\\NC(=O)C1CCCCC1", "Potency": "inconclusive: 35.5 µM [inhibitor, single point]"}, {"smiles": "O=C1CNC(=S)N1C1CCCCCC1", "Potency": "active: 11.2 µM"}, {"smiles": "CC(C)(C)C(=O)NCCc1nc2ccccc2n1CC(=O)c1ccc(Cl)cc1", "Potency": "inconclusive: 35.5 µM [activator, single point]"}, {"smiles": "COc1ccc2nc(Cl)c(/C=N/Nc3ccccn3)cc2c1", "Potency": "active: 11.2 µM"}]}]}
